The other results are listed elsewhere or left out.

The chains behind the UniProt entries cited, without tags or fusion partners. Where a name states a change or a piece, a line headed by the entry shows the natural chain unless it says otherwise.
UniProt Q2TBE0: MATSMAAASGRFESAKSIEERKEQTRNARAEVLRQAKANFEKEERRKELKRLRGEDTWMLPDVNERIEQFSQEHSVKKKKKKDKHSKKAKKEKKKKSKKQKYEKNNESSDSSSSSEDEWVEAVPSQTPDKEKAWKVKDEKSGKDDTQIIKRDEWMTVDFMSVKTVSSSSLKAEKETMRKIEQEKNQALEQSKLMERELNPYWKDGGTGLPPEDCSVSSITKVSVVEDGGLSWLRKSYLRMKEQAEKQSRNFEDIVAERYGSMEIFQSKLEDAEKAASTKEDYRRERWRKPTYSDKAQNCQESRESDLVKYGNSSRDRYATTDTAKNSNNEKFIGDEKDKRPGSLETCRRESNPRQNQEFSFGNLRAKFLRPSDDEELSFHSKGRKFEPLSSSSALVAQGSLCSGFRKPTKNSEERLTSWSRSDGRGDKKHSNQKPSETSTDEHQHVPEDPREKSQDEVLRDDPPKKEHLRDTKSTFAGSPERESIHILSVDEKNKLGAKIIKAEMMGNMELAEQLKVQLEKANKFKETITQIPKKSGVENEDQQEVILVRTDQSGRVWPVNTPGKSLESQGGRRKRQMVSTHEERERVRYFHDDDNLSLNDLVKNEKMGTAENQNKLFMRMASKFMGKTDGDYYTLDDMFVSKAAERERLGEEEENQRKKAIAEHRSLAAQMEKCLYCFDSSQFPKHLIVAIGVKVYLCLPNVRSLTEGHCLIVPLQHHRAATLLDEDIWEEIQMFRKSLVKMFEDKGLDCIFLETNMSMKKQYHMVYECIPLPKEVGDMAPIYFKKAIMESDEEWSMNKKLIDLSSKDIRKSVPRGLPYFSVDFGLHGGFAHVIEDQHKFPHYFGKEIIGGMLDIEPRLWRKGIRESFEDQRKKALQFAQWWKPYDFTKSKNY
UniProt P53355: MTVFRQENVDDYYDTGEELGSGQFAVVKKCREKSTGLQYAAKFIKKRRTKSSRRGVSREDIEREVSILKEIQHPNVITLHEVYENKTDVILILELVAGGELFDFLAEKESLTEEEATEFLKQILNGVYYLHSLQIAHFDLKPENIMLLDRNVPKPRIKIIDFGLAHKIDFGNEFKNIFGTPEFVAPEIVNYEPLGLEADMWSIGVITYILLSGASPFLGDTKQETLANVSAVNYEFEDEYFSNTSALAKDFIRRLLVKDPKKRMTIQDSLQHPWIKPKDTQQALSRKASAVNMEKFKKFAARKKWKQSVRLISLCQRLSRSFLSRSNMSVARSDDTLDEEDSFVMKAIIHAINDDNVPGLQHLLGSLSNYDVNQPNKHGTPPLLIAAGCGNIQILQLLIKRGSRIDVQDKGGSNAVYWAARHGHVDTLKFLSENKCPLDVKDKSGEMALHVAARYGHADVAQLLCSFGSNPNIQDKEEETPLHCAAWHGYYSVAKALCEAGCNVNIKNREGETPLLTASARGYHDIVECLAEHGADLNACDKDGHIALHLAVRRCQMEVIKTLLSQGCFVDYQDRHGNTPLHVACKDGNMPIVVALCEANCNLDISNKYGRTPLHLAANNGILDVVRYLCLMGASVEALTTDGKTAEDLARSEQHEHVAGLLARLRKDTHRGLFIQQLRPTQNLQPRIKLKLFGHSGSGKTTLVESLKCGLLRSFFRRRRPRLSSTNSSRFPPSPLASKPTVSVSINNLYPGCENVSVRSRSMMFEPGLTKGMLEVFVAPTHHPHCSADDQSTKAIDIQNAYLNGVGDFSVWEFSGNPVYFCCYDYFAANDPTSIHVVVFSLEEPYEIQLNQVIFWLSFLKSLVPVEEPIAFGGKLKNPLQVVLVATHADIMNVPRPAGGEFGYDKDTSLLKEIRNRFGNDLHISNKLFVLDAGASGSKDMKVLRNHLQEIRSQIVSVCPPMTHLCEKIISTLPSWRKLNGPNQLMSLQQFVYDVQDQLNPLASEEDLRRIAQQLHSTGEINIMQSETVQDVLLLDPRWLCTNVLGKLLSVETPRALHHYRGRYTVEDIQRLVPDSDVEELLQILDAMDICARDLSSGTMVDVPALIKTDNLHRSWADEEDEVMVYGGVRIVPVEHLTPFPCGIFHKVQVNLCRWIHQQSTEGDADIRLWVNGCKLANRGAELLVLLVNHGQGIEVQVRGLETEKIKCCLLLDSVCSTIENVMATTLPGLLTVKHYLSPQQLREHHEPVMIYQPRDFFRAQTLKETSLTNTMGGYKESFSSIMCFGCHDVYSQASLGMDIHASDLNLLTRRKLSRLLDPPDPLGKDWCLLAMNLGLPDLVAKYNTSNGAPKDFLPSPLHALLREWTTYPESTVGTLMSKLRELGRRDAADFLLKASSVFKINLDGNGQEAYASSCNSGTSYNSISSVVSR
UniProt Q9Y5B0: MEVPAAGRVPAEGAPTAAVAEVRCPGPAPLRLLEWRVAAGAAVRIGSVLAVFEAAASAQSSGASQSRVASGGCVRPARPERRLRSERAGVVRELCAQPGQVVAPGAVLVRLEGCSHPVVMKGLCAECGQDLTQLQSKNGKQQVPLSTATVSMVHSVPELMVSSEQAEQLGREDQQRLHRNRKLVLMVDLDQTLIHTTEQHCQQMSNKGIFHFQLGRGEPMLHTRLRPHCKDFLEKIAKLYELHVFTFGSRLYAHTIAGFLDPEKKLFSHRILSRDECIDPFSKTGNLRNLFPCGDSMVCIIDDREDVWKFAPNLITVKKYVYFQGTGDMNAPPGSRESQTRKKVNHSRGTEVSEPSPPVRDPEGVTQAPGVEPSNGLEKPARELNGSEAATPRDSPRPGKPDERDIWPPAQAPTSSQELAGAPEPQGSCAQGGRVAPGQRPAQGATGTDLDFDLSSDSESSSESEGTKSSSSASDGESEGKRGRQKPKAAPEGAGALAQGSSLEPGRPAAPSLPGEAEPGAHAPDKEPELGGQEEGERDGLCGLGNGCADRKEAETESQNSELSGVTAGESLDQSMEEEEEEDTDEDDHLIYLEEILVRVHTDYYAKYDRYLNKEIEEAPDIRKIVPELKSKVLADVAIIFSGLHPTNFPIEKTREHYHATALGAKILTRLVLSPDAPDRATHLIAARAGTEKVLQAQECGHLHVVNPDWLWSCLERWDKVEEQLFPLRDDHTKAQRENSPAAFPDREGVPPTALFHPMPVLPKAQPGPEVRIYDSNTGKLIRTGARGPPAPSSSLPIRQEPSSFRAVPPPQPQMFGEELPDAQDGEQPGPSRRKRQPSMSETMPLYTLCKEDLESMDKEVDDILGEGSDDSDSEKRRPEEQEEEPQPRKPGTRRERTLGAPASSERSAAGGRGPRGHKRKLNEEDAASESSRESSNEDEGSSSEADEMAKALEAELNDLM
UniProt O43310: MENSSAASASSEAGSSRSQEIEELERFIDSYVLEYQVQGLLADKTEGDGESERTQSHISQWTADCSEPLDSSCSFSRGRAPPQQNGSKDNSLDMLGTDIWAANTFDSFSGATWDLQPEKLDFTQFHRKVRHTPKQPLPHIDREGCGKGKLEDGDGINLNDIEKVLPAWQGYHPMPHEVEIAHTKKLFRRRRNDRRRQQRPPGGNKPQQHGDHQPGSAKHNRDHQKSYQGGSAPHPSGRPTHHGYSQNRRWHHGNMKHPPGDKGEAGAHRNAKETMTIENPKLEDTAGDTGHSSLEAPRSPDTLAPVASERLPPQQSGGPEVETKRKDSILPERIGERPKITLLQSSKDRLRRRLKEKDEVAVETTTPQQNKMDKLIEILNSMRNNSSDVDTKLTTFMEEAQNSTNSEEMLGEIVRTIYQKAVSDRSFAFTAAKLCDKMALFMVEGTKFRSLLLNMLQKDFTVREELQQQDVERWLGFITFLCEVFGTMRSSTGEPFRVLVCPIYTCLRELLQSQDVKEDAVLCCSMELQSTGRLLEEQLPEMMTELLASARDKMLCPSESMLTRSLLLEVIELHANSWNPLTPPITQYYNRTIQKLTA
UniProt P01037: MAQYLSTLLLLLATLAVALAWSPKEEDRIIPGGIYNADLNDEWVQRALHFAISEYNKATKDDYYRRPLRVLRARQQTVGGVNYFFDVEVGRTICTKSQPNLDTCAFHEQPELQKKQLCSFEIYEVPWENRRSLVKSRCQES
UniProt Q8WV16: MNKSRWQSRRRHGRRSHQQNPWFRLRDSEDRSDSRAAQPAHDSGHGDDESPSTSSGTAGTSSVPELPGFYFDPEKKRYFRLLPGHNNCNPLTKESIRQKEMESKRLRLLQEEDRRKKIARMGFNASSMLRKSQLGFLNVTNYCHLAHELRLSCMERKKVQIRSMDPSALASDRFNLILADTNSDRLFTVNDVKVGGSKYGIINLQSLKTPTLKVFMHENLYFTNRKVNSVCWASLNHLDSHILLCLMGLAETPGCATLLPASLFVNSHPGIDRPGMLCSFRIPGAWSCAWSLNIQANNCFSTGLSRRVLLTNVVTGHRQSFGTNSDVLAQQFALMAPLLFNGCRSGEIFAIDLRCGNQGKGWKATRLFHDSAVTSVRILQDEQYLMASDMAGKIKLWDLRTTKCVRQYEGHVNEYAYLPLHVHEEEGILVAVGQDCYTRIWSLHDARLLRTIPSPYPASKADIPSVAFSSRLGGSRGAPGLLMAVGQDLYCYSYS
UniProt Q07973: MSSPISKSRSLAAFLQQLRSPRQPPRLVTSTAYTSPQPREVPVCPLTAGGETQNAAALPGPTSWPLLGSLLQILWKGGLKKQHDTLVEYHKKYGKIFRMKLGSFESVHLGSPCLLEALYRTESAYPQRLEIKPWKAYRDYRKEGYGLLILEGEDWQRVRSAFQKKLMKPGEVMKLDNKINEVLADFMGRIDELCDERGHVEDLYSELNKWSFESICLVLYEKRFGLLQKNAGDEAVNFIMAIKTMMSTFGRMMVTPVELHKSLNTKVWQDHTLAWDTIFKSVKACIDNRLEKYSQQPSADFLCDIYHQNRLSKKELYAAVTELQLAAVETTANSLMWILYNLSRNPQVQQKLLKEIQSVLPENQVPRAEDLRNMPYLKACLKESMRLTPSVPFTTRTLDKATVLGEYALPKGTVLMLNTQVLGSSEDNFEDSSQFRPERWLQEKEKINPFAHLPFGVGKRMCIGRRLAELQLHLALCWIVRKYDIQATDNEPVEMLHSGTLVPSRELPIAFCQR
UniProt Q9BTE7: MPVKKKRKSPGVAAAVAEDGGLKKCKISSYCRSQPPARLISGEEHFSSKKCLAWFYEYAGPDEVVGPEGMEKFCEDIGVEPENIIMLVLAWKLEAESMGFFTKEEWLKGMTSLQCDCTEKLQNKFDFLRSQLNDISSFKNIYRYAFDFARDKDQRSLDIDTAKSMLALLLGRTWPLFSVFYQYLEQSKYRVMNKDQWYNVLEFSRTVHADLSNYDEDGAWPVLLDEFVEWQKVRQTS
UniProt Q15438: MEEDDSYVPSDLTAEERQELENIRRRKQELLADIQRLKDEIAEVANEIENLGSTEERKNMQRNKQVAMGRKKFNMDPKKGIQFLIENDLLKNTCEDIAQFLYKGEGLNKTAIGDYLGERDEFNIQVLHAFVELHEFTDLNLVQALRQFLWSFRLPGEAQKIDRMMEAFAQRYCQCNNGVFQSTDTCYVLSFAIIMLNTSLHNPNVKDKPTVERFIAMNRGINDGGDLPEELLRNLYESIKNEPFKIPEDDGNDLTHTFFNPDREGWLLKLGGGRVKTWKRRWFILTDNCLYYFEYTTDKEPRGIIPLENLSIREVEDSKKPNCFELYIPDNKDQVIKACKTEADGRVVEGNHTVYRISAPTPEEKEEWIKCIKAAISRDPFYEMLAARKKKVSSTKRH
UniProt Q9BWK5: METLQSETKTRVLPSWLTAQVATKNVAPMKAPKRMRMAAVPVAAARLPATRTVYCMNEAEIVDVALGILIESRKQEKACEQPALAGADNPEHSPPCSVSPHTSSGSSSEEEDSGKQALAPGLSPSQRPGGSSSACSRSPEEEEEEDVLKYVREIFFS
UniProt Q53TN4: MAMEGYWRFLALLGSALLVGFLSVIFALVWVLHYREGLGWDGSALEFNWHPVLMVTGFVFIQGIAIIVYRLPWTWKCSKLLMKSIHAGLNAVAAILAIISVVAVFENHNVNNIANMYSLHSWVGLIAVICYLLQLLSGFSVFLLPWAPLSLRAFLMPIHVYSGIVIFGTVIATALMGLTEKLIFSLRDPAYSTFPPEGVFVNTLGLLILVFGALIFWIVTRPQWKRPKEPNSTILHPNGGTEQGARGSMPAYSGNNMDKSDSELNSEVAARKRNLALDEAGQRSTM

Compound in one assay: NC(=O)Nc1cc(-c2cccc(F)c2)sc1C(=O)N[C@H]1CCCNC1
Description: log2 fold change, soluble protein after heating vs DMSO (PISA); higher = thermal stabilisation; K562 cells, 10 uM, 30 min; active = over 0.2 and 3.5 SD of the protein, either way, in both replicates (recomputed). In short, it runs like this: (§1)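 K562 cells at 2×10^6 cells/mL were treated with 10 μM compound for 30 min. Aliquots were heated for 3 min across 48°C-58°C, pooled, and extracted in PBS with 0.5% NP-40 at 4°C; soluble protein was the supernatant after 21,000xg for 90 min. Soluble protein was quantified by TMTpro 16plex LC-MS/MS with channel sums equalised, and reported as log2 fold change in thermal stability against DMSO controls, with values from duplicates.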
Take CST4 (UniProt P01036): the log2 fold change was inactive: 0.164.
Consider CWF19L2 (UniProt Q2TBE0), for which the log2 fold change was inactive: 0.129.
Still for that read-out and setting: the figure for CST6 (UniProt Q15828) is inactive: 0.113; for DAPK1 isoform 3 (UniProt P53355) it is inactive: -0.052.
Same read-out and setting: then DCAF12 (UniProt Q5T6F0), with inactive: -0.025; and CTDP1 (UniProt Q9Y5B0), with inactive: -0.072.
Same read-out and setting: then CTSS (UniProt P25774), with inactive: -0.054; and CTPS1 isoform 2 (UniProt P17812), with inactive: -0.426; and CTIF (UniProt O43310), with inactive: -0.257.
Turning to DAPK2 isoform 2 (UniProt Q9UIK4), the log2 fold change is inactive: 0.002.
Same read-out and setting: then CXCL14 (UniProt O95715), with inactive: -0.127.
With CTR9 (UniProt Q6PD62), the log2 fold change is inactive: 0.171.
Still for that read-out and setting: then CTNS isoform 2 (UniProt O60931), with inactive: 0.044.
Still for that read-out and setting: then DBNDD1 isoform 3 (UniProt Q9H9R9), with inactive: -0.095; and CST1 (UniProt P01037), with inactive: 0.289; and CSPG5 (UniProt O95196), with inactive: -0.057.
Take DCAF4 (UniProt Q8WV16): the log2 fold change was inactive: -0.046.

Compound in the next assay: NC(=O)c1cnc(N[C@@H]2CCCC[C@@H]2N)nc1Nc1cccc(-n2nccn2)c1
The description is as above. The gist of the method:
as §1
Turning to CWF19L2 (UniProt Q2TBE0), the log2 fold change was inactive: 0.013.
The same measure, in the same setting: the figure for CYP24A1 (UniProt Q07973) is inactive: 0.045; for DCUN1D5 (UniProt Q9BTE7) it is inactive: 0.019; for CYB561 (UniProt P49447) it is inactive: 0.126.
Same read-out and setting: the figure for CTPS1 isoform 2 (UniProt P17812) is inactive: 0.147; for DCBLD2 isoform 2 (UniProt Q96PD2) it is inactive: 0.226; for CYTH1 (UniProt Q15438) it is inactive: -0.122.
On the same count and under the same terms, then CYREN isoform 4 (UniProt Q9BWK5), with inactive: -0.106.
Consider CXorf40B (UniProt Q96DE9), for which the log2 fold change is inactive: -0.06.
On the same count and under the same terms, then CTDSPL2 (UniProt Q05D32), with inactive: 0.384.
For CYP4V2 (UniProt Q6ZWL3), the log2 fold change was inactive: 0.102.
In the case of CYBRD1 (UniProt Q53TN4), the log2 fold change is inactive: -0.151.
The same measure, in the same setting: the figure for CYTH2 (UniProt Q99418) is inactive: -0.074.

Compound in a further assay: NC1(c2ccc(-c3nc4ccn5c(=O)[nH]nc5c4cc3-c3ccccc3)cc2)CCC1
The description is as above. In short, it runs like this:
as §1
In the case of CST4 (UniProt P01036), the log2 fold change was inactive: 0.107.
The same measure, in the same setting: the figure for CYP24A1 (UniProt Q07973) is inactive: 0.43; for CST6 (UniProt Q15828) it is inactive: 0.176.
Same read-out and setting: the figure for DAPK1 isoform 3 (UniProt P53355) is inactive: -0.19; for DCAF12 (UniProt Q5T6F0) it is inactive: -0.201.
As to CTDP1 (UniProt Q9Y5B0), the log2 fold change is inactive: -0.084.
Take DCUN1D5 (UniProt Q9BTE7): the log2 fold change is inactive: -0.201.
Still for that read-out and setting: then CYB561 (UniProt P49447), with inactive: 0.032.
The same measure, in the same setting: then CTNNBIP1 (UniProt Q9NSA3), with inactive: 0.077.
On the same count and under the same terms, then CYREN (UniProt Q9BWK5), with inactive: -0.098.
Take CYTH1 (UniProt Q15438): the log2 fold change is inactive: -0.122.
Same read-out and setting: then DAPK2 isoform 2 (UniProt Q9UIK4), with inactive: -0.028; and CYREN isoform 4 (UniProt Q9BWK5), with inactive: -0.095.
Same read-out and setting: then CXCL14 (UniProt O95715), with inactive: -0.325; and CTNS isoform 2 (UniProt O60931), with inactive: -0.05; and CYBRD1 (UniProt Q53TN4), with inactive: -0.092.
Still for that read-out and setting: the figure for CST1 (UniProt P01037) is inactive: -0.014.
With CYTH2 (UniProt Q99418), the log2 fold change is inactive: -0.08.
Still for that read-out and setting: then DCAF4 (UniProt Q8WV16), with inactive: -0.127.

Compound in another assay: NCC(=O)Nc1ccc(-n2nc(C(F)(F)F)cc2-c2ccc3c(ccc4ccccc43)c2)cc1
Described as above. In short, it runs like this:
as §1
Regarding CST4 (UniProt P01036), the log2 fold change was inactive: 0.017.
Same read-out and setting: then CYP24A1 (UniProt Q07973), with inactive: 0.21.
As to DCUN1D5 (UniProt Q9BTE7), the log2 fold change is inactive: -0.253.
Same read-out and setting: the figure for CYB561 (UniProt P49447) is inactive: -0.081; for CTSS (UniProt P25774) it is inactive: 0.053; for CTIF (UniProt O43310) it is inactive: 0.087.
Same read-out and setting: then CYREN (UniProt Q9BWK5), with inactive: 0.068.
Turning to CTNNBL1 (UniProt Q8WYA6), the log2 fold change is inactive: 0.175.
Same read-out and setting: then CYTH1 (UniProt Q15438), with inactive: -0.092; and CYREN isoform 4 (UniProt Q9BWK5), with inactive: 0.013; and CTNS isoform 2 (UniProt O60931), with inactive: 0.022.
Same read-out and setting: then CYP4V2 (UniProt Q6ZWL3), with inactive: 0.027.
As for DCAF17 (UniProt Q5H9S7), the log2 fold change is inactive: 0.031.
On the same count and under the same terms, then CYBRD1 (UniProt Q53TN4), with inactive: 0.079; and CST1 (UniProt P01037), with inactive: 0.08.
Still for that read-out and setting: then CTDSP1 (UniProt Q9GZU7), with inactive: -0.055.

Compound in another assay: Nc1ccccc1NC(=O)c1ccc(CNC(=O)OCc2cccnc2)cc1 [entinostat]
Described as above. The gist of the method: as §1
As to CST4 (UniProt P01036), the log2 fold change was inactive: -0.437.
Same read-out and setting: the figure for CWF19L2 (UniProt Q2TBE0) is inactive: -0.134; for CST6 (UniProt Q15828) it is inactive: 0.227.
As for DAPK1 isoform 3 (UniProt P53355), the log2 fold change was inactive: 0.07.
For the target DCAF12 (UniProt Q5T6F0), the log2 fold change was inactive: -0.003.
Same read-out and setting: then CTDP1 (UniProt Q9Y5B0), with inactive: 0.049; and CTSS (UniProt P25774), with inactive: -0.013.
As for CTPS1 isoform 2 (UniProt P17812), the log2 fold change is inactive: 0.034.
The same measure, in the same setting: then CTIF (UniProt O43310), with inactive: -0.075; and DAPK2 isoform 2 (UniProt Q9UIK4), with inactive: 0.118.
Consider CXCL14 (UniProt O95715), for which the log2 fold change is inactive: 0.058.
As to CTR9 (UniProt Q6PD62), the log2 fold change is inactive: 0.025.
Consider CTNS isoform 2 (UniProt O60931), for which the log2 fold change is inactive: 0.012.
DBNDD1 isoform 3 (UniProt Q9H9R9): the log2 fold change is inactive: -0.179.
CST1 (UniProt P01037): the log2 fold change was inactive: 0.345.
Take CSPG5 (UniProt O95196): the log2 fold change is inactive: 0.067.
On to DCAF4 (UniProt Q8WV16), for which the log2 fold change was inactive: 0.005.

Source of the values: the supplement of paper PMC10849652.
